Some of the results follow. The main result of the screen is listed elsewhere. These columns were measured beside it and carry no call. The list favours compounds with an active or inconclusive main result. Words in brackets tell the shape of the fitted curve; partial curves, single points and poor fits give uncertain potencies.
Assay: qHTS Assay for Lipid Storage Modulators in Drosophila S3 Cells;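 on cell number change: cells counted by Cell Tracker Red CMTPX staining in the red channel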
Settings: BODIPY lipid droplet fluorescence, 18-24 h; for cell number change: measured here: cell count max response, cells fed with added oleic acid
Summary of the method: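 Drosophila S3 cells loaded with oleic acid (400 uM, as added) and compounds at several concentrations; lipid droplets imaged by 488-nm laser-scanning cytometry, 500–530 nm intensity and object ratio to cell channel. Percent activity normalized to 20 uM Triacsin C.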

[1] = measured here: cell number channel AC50, cells fed with added oleic acid
[2] = measured here: lipid fluorescence (Fed channel) AC50, cells fed with added oleic acid

SMILES	cell number change	AC50 [1]	AC50 [2]
O=C(c1c[nH]c2ccccc12)N1CCN(Cc2ccccc2)CC1	21.8%		
O=C(Cn1c(C(=O)N2CCN(C3CCCCC3)CC2)cc2sccc21)c1ccccc1	13.7%	0.92 µM [rising, full curve, poor fit]	
O=S1(=O)CCOC[C@H](CC2CCCCC2)N1Cc1cccc(C(F)(F)F)c1	15%		3.26 µM [rising, partial curve, poor fit]
O=C(CSc1nnc(-c2ccccn2)o1)Nc1ccccc1Cl	10.5%		
C=CCNC(=O)c1cc(-c2ccccc2O)on1	-48.7%	0.366 µM [falling, partial curve, poor fit]	16.4 µM [falling, partial curve, poor fit]
Cc1ccc(Cn2nnc3c(=O)n(CC(=O)NCC4CCCO4)cnc32)cc1 (centres undefined)			0.082 µM [rising, full curve]
CCOC(=O)c1[nH]c(C)c(C(=O)C(C)C)c1C	15.6%	6.51 µM [rising, single point]	13 µM [rising, partial curve]
CCc1[nH]nc2c1C(C1C=CCCC1)C(C#N)=C(N)O2 (centres undefined)	70.4%	29.1 µM [rising, single point]	
Cc1ccc2nc(SCC(=O)Nc3oc(C)c4c(C)n[nH]c(=O)c34)[nH]c2c1	10%	3.66 µM [rising, single point]	3.26 µM [rising, full curve]
Cc1cccnc1NC(=O)Nc1ccccc1			29.1 µM [rising, partial curve, poor fit]
Cc1nc2ccc(NC(=O)c3ccc(Br)o3)cc2s1	-21.7%		
Cc1ccc(CC(=O)NCc2cccnc2)cc1	14.9%		
Oc1cccc(NC(=S)N=Nc2c(O)[nH]c3ccccc23)c1	-46.7%	1.84 µM [falling, partial curve, poor fit]	29.1 µM [falling, single point]
CC(=O)N1C(=O)C2(C(C#N)=C(N)Oc3n[nH]c(-c4ccccn4)c32)c2ccccc21 (centres undefined)	-10.5%		0.92 µM [rising, partial curve]
COc1cc(OC)c(OC)cc1CN1CCN(S(=O)(=O)c2ccc(F)cc2)CC1	58.6%	9.2 µM [rising, single point]	
C=CCNC(=O)CC(=O)N/N=C/c1ccc(C(=O)OC)cc1	61.2%	8.2 µM [rising, partial curve]	9.2 µM [rising, partial curve]
CCOC(=O)c1sc(NC(=O)COC(=O)C(CCSC)NC(C)=O)nc1C (centres undefined)	-12.1%	6.51 µM [falling, single point]	
Cc1c(NC(=O)c2c(F)c(F)c(F)c(F)c2F)c(=O)n(-c2ccccc2)n1C	-20.8%		1.64 µM [falling, full curve, poor fit]
Cc1ccc(C(=O)N/N=C2\SCC(=O)N2c2cc(C)ccc2C)cc1	-64.3%	11.6 µM [falling, partial curve]	13 µM [falling, partial curve]
Cc1cc(C(=O)CSc2nnc(-c3cccc(F)c3)n2N)c(C)n1Cc1ccc2c(c1)OCO2		0.517 µM [rising, full curve]	0.517 µM [rising, full curve]

3 records picked at random from the list so far, as already listed:
SMILES	cell number change	AC50 [1]	AC50 [2]
O=C(Cn1c(C(=O)N2CCN(C3CCCCC3)CC2)cc2sccc21)c1ccccc1	13.7%	0.92 µM [rising, full curve, poor fit]	
Cc1ccc2nc(SCC(=O)Nc3oc(C)c4c(C)n[nH]c(=O)c34)[nH]c2c1	10%	3.66 µM [rising, single point]	3.26 µM [rising, full curve]
Cc1ccc(Cn2nnc3c(=O)n(CC(=O)NCC4CCCO4)cnc32)cc1 (centres undefined)			0.082 µM [rising, full curve]

Remaining list, next part

SMILES	cell number change	AC50 [1]	AC50 [2]
COC(=O)c1cn(CCOc2ccccc2F)c2ccccc12		5.17 µM [rising, single point]	3.66 µM [rising, full curve]
CCOCCCNS(=O)(=O)c1ccccc1	-39.3%	16.4 µM [falling, single point]	14.6 µM [falling, partial curve]
CC(C)NC(=O)COC(=O)/C=C/c1ccc(F)cc1	-10.3%		0.058 µM [falling, full curve, poor fit]
CC(OC(=O)c1cccnc1)C(=O)Nc1ccc2c(c1)OCO2 (centres undefined)	-1.91%	0.651 µM [falling, single point]	
CCc1noc(C)c1C(=O)OC(C)C(=O)NCc1ccc(OC)cc1 (centres undefined)	-15.3%		29.1 µM [falling, single point]
CCc1ccccc1Nc1nc2ccccc2n1C			20.6 µM [rising, single point]
O=C(/C=C/c1ccc(Cl)cc1Cl)N1CCN(c2ccccc2[N+](=O)[O-])CC1		2.06 µM [rising, partial curve]	2.31 µM [rising, full curve]
Cc1cc(O)ccc1Nc1nc(-c2cccs2)cs1	-10.7%	0.0058 µM [falling, full curve, poor fit]	
COc1ccc(C)cc1S(=O)(=O)N1CCN(C)CC1c1ccccc1 (centres undefined)	-37.5%	18.4 µM [falling, partial curve, poor fit]	23.1 µM [falling, partial curve, poor fit]
Cc1cc(N2CCOCC2)c2c(N)cc(C)c(C)c2n1	60.5%	2.59 µM [rising, full curve]	
CN1C(=O)C(C)(C)c2cc(S(=O)(=O)N3CCN(c4ccccc4)CC3)ccc21	21%		18.4 µM [falling, single point]
Cc1ccccc1C(=O)Nc1ccc(C(=O)N/N=C/c2ccc(O)c(Br)c2)cc1	-36.5%	29.1 µM [falling, single point]	
CN(C(=O)c1cc2c(s1)-c1ccccc1S(=O)(=O)C2)c1ccccc1F		0.517 µM [rising, full curve, poor fit]	8.2 µM [rising, partial curve]
O=C1NC(NS(=O)(=O)c2ccc(Cl)cc2)(C(F)(F)F)C(=O)N1Cc1cccnc1 (centres undefined)	9.26%	0.146 µM [rising, full curve, poor fit]	
CN(C1=NC(=O)C(CC(=O)O)S1)c1ccc(O)cc1 (centres undefined)	-2.23%	0.517 µM [rising, single point]	0.103 µM [rising, full curve, poor fit]
NS(=O)(=O)c1ccc(NC(=O)Nc2cccc3ccccc23)cc1	23.8%	2.06 µM [rising, partial curve, poor fit]	6.51 µM [rising, partial curve, poor fit]
COc1cc2c(c(O)c1OC)C(=O)C(OC)CCC2 (centres undefined)	9.76%		
Cc1nc(CS(=O)c2ccc(Cl)cc2)cc(NCc2ccc(Cl)cc2Cl)n1 (centres undefined)	-62.9%	3.26 µM [rising, partial curve]	
COc1ccccc1Nc1nc2c(C)cccc2cc1C#N	16.7%		20.6 µM [rising, single point]
CSCCC(NC(=O)c1ccc([N+](=O)[O-])cc1Cl)C(=O)OCC(=O)NC(=O)CN1CCCC1=O (centres undefined)	-14.7%		0.13 µM [falling, full curve, poor fit]

SMILES	cell number change	AC50 [1]	AC50 [2]
N#Cc1nc(Cc2ccccc2)oc1NCCc1ccccc1	-25.9%		7.31 µM [rising, partial curve]
Cc1ccc(-c2nn(-c3ccccc3)cc2/C=N/n2c(-c3cccs3)n[nH]c2=S)cc1	-7.62%		
CCC(C)[C@H](NC(=O)N1CCn2c1nc1ccccc12)C(=O)NCC1CCCO1 (some centres undefined)	-37.1%	32.6 µM [falling, single point]	
Cc1oncc1C(=O)Nc1ccc(C(F)(F)F)cc1	26.1%		20.6 µM [rising, single point]
COc1ccc(NC(=O)c2ccc(NC(=O)c3cccs3)cc2)cc1			0.259 µM [rising, full curve, poor fit]
CCOC(=O)NCCc1ccc(OC)cc1	-3.52%		
O=C(Oc1c(-c2ccccc2Cl)oc2ccccc2c1=O)c1ccc(Cl)cc1	20.6%		23.1 µM [rising, single point]
CCCOC(=O)c1cccc(NC(=O)c2cccnc2)c1	5.42%	0.0326 µM [rising, full curve, poor fit]	0.00461 µM [rising, full curve, poor fit]
O=C(COC(=O)c1ccc(O)cc1)Nc1cc(C(F)(F)F)ccc1N1CCOCC1	-5.5%		0.00517 µM [falling, full curve, poor fit]
COc1ccc(-c2nnn(CC(=O)OC3CCCCC3)n2)cc1OC	2.37%		0.00461 µM [falling, full curve, poor fit]
Cc1cc(NC(=O)c2ccc(F)cc2)ccc1NC(=O)c1ccco1	-8.55%		
Cc1nn(Cc2ccc(Cl)cc2Cl)c(Cl)c1/C=N/NC(=O)CNc1cccc(C(F)(F)F)c1	-41.9%	23.1 µM [falling, partial curve]	14.6 µM [falling, partial curve]
CCCCN(C(=O)c1ccc2c(c1)OCO2)c1c(N)n(CCCC)c(=O)[nH]c1=O	-49.4%	5.8 µM [falling, full curve]	
COc1ccc(C(Cl)=C(c2ccc(OC)cc2)c2ccc(OC)cc2)cc1	-15.9%		18.4 µM [rising, single point]
CCc1ccccc1NC(=O)Cn1nc(C)n2cccc2c1=O			6.51 µM [falling, single point]
Cc1oc(-c2cccc(Cl)c2)nc1CSCC(=O)O	-0.922%		
Cc1ccc2cc(CN(Cc3cccs3)Cc3nnnn3CC3CCCO3)c(=O)[nH]c2c1 (centres undefined)	4.96%		
Cc1ccc(C2=[N+]([O-])C(C)(C)N(O)C2(C)C)cc1	140%	20.6 µM [rising, partial curve, poor fit]	29.1 µM [rising, partial curve]

From PubChem BioAssay AID2685 (National Center for Advancing Translational Sciences (NCATS), 2010)
